Results: patent US20260234173A1, “STRUCTURED MOLECULAR VECTORS FOR ANTI-INFLAMMATORY COMPOUNDS AND USES THEREOF” (Universite Claude Bernard Lyon 1, priority 2019, published 2026)
At least one structure is not confirmed: it was looked up by name or label, or the drawing left a doubt.

Legend:
[1] = tested on: CA1 pyramidal neurons in hippocampal slices from rats subjected to Pilo-SE; test: Hippocampal LTP in slices from Pilo-SE rats, compound perfused in the bath (ex vivo); assay type: cell-based, rat; settings: bath application 400 nM; slices 1-2 weeks post Pilo-SE
Protocol: In this experiment we used male Sprague-Dawley rats (ENVIGO, Netherlands). Pups were received at 14 day-old (postnatal day 14 (P14)) with their foster mother, and were maintained in groups of 10 in plastic cages (405 mm×255 mm×197 mm) with free access to food and water. All animal procedures are in accordance with the guidelines of the Animal Care and Use Committee of the University Claude Bernard Lyon 1.
All injected solutions were prepared in sterile saline (0.9% w/v). At weaning (postnatal day 20 (P20)), Sprague-Dawley male rat pups were first injected i.p. with lithium chloride (127 mg/Kg; Sigma-Aldrich), to decrease the dose of pilocarpine needed to trigger Status Epilepticus (SE). Scopolamine methylnitrate (1 mg/Kg; Sigma-Aldrich) was injected s.c. 18 h later, to alleviate peripheral cholinergic adverse side effects. Pilocarpine hydrochloride (25 mg/Kg; Sigma-Aldrich) was injected i.p. 30 min later, to induce SE. […]
At P28-38, Sprague-Dawley rats were anesthetized with isoflurane, the forebrain was removed and placed in ice cold standard artificial cerebrospinal fluid (ACSF), consisting of (in mM): 124 NaCl, 5 KCl, 1.25 Na2HPO4, 2 MgSO4, 2 CaCl2), 26 NaHCO3, supplemented with 10 D-glucose, and bubbled with 95% O2 and 5% CO2. […] Series resistance was continually monitored, and experiments were discarded if it changed by >20%. […]

[2] = tested on: fully amygdala-kindled rats; test: Seizure severity in fully amygdala-kindled rats (Racine's scale); assay type: in vivo, rat
Protocol: All animal procedures were in compliance with the guidelines of the European Union (directive 2010-63), regulating animal experimentation, and have been approved by the ethical committee of the Claude Bernard Lyon 1 University. Male Sprague-Dawley rats (Envigo, France) were used in these experiments. They were housed in a temperature-controlled room (23±1° C.) under diurnal lighting conditions (lights on from 6 a.m to 6 p.m). Rats arrived 15 days prior to the beginning of the experiments. They were maintained in groups of 2 in 800 cm2 plastic cages comprising minimal environmental enrichment (nesting cardboard material, wooden gnowing sticks), and had free access to food and water.
For surgical implantation of kindling electrodes, rats weighing 220-240 g were anesthetized using isoflurane (5% induction; 2% maintenance) and treated with the analgesic drug buprenorphine (0.050 mg/kg, i.m.). Their heads were positioned in a stereotaxic apparatus with the incisor bar set at −3.3 mm. Burr holes were drilled for the placement of three stainless steel jewelers' screws in the left parietal, right frontal and occipital bones, and over the site of implantation of the electrode used for amygdala kindling. […]

Row | Structure (SMILES) | LTP magnitude (EPSP amplitude, % of baseline) [1] | seizure severity compared to D0 ([2]; all rats (n=15), D10, day after 50 mg/kg at D9) | seizure severity compared to D0 ([2]; rats responding to 5 mg/kg (n=8), 2 days after the 10 mg/kg dose)
1 | CC/C=C\C/C=C\C/C=C\C/C=C\C/C=C\C/C=C\CCC(=O)NCCOP(=O)(O)O [synaptamide phosphate] | 150.4=15.4% |  | 
2 | CCC=CCC=CCC=CCC=CCC=CCC=CCCC(=O)NCCP(=O)(O)O [synaptamide phosphonate] |  | −54.4:±9.4% | −62.3±1^20.7%
